Paper doi:10.1101/2021.01.24.427949
These are yes or no findings as the source states them, for the method shown. In cells and extracts the contact can be indirect. Some entries that bind do so weakly or less than the wild type.

T1: phosphoglycerate dehydrogenase (Phgdh) (mouse (endogenous in 4T1 primary tumor)) (UniProt Q61753)
T1 sequence: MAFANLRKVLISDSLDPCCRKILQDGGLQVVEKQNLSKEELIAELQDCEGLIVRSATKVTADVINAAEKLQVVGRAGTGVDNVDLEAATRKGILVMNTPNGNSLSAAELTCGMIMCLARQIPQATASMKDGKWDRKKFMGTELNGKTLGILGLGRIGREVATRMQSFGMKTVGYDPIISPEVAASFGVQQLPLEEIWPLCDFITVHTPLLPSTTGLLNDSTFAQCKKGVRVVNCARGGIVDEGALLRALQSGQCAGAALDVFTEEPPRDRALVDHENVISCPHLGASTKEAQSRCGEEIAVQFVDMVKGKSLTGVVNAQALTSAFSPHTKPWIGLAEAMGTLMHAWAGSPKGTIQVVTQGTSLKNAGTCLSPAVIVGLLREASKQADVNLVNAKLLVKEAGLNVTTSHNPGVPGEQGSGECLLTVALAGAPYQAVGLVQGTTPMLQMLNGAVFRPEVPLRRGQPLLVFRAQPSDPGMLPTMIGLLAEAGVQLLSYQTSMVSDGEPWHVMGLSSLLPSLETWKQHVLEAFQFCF

B1: phosphofructokinase isoform PfkM (enzyme, UniProt P47857 1-780)
chain: MTHEEHHAAKTLGIGKAIAVLTSGGDAQGMNAAVRAVVRVGIFTGARVFFVHEGYQGLVDGGEHIREATWESVSMMLQLGGTVIGSARCKDFREREGRLRAAHNLVKRGITNLCVIGGDGSLTGADTFRSEWSDLLNDLQKDGKITAEEATKSSYLNIVGLVGSIDNDFCGTDMTIGTDSALHRIVEIVDAITTTAQSHQRTFVLEVMGRHCGYLALVTSLSCGADWVFIPECPPDDDWEEHLCRRLSETRTRGSRLNIIIVAEGAIDKNGKPITSEDIKNLVVKRLGYDTRVTVLGHVQRGGTPSAFDRILGSRMGVEAVMALLEGTPDTPACVVSLSGNQAVRLPLMECVQVTKDVTKAMDEKRFDEAIKLRGRSFMNNWEVYKLLAHVRPPVSKGGLHTVAVMNVGAPAAGMNAAVRSTVRIGLIQGNRVLVVHDGFEGLAKGQIEEAGWSYVGGWTGQGGSKLGTKRTLPKKNLEQISANITKFNIQGLVIIGGFEAYTGGLELMEGRKQFDELCIPFVVIPATVSNNVPGSDFSIGADTALNTICTTCDRIKQSAAGTKRRVFIIETMGGYCGYLATMAGLAAGADAAYIFEEPFTIRDLQVNVEHLVQKMKTTVKRGLVLRNEKCNENYTTDFIFNLYSEEGKGIFDSRKNVLGHMQQGGSPTPFDRNFATKMGAKAMNWMSGKIKESYRNGRIFANTPDSGCVLGMRKRALVFQPVTELKDQTDFEHRIPKEQWWLKLRPILKILAKYEIDLDTSDHAHLEHISRKRSGEAAV
B2: phosphofructokinase isoform PfkP (enzyme, UniProt Q9WUA3 1-784)
chain: MSDLDSSSSSAYPKYLEHLSGDGKAIGVLTSGGDAQGMNAAVRAVVRMGIYTGAKVYFIYEGYQGLVDGGSNIVEAKWDCVSSILQVGGTIIGSARCKAFRSREGRLKAACNLARLGITNLCVIGGDGSLTGANLFRKEWSGLLEELARNGDIDNDTVQKYSYLNVVGMVGSIDNDFCGTDMTIGTDSALHRIIEVVDAIMTTAQSHQRTFVLEVMGRHCGYLALVSALTCGADWVFLPESPPEEDWEENMCLKLSENRARKKRLNIIIVSEGAIDMQNKPITSEKIKELVVKNLGFDTRVTILGHVQRGGTPSAFDRILASRMGVEAVIALLEATPETPACVVSLRGNQAVRLPLMECVQMTQDVQKAMDERRFKEAVKLRGRRFEGNLNTYKRLAIKLPDEKIVKSNCNVAVINVGAPAAGMNAAVRSAVRVGIADGHKMFAIYDGFEGFANGQIKEIGWADVGGWTGQGGSILGTKRTLPGKYLEKIAEQMHSHSINALLIIGGFEAYLGLLELAAAREKHEAFCVPMVMVPATVSNNVPGSDFSIGADTALNTITDTCDRIKQSASGTKRRVFIIETMGGYCGYLANMGALAAGADAAYIFEEPFDIGDLQSNVVHLTEKMKTSIQRGLVLRNESCSVNYTTDFIYQLYSEEGKGVFDCRKNVLGHMQQGGAPSPFDRNFGTKISAKAMEWISAKLKGSQGTGKKFVSDDSICVLGICKRDLLFQPVAELKKVTDFEHRIPKEQWWLKLRPIMKILAKYEASYDMSDSGKLESLQHHEEL

Target: T1, phosphoglycerate dehydrogenase (Phgdh) (mouse (endogenous in 4T1 primary tumor))
Assay: co-IP

Binder	binding
B1	binds
B2	binds
